We go through 1 substance from paper PMC12540712.

Protein sequences, listed by entry. Tags and fused reporters are not part of them. Lines headed by an entry give the natural chain unless they say otherwise; changes in a name come on top.
UniProt P28340: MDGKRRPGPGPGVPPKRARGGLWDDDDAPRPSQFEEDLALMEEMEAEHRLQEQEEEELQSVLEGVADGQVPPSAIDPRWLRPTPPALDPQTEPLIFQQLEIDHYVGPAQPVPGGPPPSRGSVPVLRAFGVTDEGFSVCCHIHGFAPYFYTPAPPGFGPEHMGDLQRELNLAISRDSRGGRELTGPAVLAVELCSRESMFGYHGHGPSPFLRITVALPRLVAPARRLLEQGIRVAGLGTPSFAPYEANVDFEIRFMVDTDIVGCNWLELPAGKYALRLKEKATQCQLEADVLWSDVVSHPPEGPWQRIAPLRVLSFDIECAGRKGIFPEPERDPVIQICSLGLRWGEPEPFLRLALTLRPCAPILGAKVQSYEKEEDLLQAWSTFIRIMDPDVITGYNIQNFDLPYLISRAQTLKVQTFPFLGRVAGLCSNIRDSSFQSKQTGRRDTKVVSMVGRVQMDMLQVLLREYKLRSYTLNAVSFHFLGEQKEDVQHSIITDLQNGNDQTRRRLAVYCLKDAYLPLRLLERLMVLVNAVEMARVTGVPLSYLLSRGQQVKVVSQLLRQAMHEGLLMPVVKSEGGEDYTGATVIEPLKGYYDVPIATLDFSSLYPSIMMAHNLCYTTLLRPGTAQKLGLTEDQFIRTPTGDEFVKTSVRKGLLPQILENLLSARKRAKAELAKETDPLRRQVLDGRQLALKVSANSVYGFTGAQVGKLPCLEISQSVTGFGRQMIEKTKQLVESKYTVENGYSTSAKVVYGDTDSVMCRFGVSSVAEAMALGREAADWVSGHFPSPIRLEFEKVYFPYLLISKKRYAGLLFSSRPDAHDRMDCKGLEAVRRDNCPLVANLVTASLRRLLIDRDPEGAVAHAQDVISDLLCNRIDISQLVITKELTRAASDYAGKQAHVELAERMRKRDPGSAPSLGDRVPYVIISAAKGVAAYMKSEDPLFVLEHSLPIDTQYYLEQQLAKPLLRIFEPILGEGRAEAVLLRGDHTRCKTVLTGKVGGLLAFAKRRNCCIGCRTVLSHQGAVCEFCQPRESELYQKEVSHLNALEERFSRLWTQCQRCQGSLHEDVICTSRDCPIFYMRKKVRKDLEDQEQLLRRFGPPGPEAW

These are yes or no findings as the source states them, for the method shown. In cells and extracts the contact can be indirect. Some entries that bind do so weakly or less than the wild type. For some assays here: Where a sequence is shown, tags or fusion partners need not be part of it.

Assay [1] concerns the target T1, And-1 T826A mutant (human) (UniProt O75717).
T1 sequence: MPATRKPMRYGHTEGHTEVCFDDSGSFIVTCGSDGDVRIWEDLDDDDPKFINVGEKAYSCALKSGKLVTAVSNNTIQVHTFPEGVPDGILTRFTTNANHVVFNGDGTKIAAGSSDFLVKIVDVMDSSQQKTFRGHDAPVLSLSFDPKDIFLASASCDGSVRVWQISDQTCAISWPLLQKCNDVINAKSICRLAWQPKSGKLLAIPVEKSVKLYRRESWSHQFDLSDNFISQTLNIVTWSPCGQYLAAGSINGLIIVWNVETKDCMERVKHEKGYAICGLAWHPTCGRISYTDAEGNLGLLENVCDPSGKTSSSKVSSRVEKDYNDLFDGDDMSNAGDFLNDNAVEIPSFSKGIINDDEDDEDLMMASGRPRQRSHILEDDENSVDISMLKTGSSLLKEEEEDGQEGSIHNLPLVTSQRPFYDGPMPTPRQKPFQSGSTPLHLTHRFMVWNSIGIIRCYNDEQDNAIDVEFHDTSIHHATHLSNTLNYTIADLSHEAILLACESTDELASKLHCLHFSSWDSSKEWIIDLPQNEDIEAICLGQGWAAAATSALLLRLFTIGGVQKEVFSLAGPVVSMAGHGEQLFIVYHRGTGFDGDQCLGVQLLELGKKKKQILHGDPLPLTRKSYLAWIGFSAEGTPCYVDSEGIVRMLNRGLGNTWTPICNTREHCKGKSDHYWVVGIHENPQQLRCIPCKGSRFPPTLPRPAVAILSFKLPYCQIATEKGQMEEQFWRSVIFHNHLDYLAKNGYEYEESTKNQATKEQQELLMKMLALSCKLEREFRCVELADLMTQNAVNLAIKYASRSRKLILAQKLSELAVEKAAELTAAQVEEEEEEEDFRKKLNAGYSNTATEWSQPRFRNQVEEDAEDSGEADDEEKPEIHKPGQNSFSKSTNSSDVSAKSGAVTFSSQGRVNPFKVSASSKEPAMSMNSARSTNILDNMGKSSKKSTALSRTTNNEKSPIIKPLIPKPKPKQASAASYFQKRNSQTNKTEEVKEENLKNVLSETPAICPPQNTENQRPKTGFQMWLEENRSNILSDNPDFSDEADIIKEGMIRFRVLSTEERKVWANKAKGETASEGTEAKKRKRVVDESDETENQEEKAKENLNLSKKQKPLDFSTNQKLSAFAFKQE
Kind of assay: co-IP; p125 with WT And-1 or T826A mutant; set-up shown only in Supplementary Fig. 3H.

For assay [2], the target named is T2, FLAG-And-1 SepB + HMG domain (330-1129) (human) (UniProt O75717).
T2 sequence: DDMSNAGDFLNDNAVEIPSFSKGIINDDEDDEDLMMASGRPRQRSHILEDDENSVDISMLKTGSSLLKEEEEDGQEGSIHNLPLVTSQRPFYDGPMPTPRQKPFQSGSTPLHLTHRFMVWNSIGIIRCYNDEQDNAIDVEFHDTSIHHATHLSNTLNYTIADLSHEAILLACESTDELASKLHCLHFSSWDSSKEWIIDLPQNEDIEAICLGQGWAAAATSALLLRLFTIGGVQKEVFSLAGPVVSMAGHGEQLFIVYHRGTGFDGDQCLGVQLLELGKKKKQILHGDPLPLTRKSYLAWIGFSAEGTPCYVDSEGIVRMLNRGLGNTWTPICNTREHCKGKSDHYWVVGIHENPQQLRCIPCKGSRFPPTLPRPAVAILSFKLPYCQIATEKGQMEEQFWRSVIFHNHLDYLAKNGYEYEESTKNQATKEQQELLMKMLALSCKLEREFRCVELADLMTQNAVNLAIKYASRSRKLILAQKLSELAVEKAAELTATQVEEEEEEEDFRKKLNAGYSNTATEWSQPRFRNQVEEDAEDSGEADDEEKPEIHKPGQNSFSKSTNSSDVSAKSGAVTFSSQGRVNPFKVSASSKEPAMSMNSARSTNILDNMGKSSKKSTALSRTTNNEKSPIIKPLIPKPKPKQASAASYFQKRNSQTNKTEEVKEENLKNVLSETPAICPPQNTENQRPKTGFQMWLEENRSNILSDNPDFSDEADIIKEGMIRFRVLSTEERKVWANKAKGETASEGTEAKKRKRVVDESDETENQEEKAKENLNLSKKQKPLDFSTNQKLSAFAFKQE
Description: co-IP; FLAG-IP on Anti-FLAG-M2 affinity beads overnight from HEK293T cells expressing FLAG-And-1 or truncated mutants, with or without UVB; 20 mM Tris-HCl pH 8.0, 100 mM NaCl, 1 mM EDTA, 0.5% NP-40, 10 mM NaF.

For the substance “catalytic subunit of DNA polymerase δ (p125) (from UniProt P28340 1-1107)”, the binding result in assay [1] and in assay [2] was “binds” throughout.
